Data reported in doi:10.1101/2023.11.28.569107.
Like-named read-outs stand apart in the source and are kept apart here. No constants are given. Whether binding was seen depends on the method and setting. In cells and extracts the contact can be indirect. Some results given as binding are weak or reduced against the parent protein; the word gives no strength. For part of these data: Sequences can lack the tags named with a protein.

Assays:
Test in all cases: co-IP
[1] = molecular target: T1, Fpn-GFP in doxycycline-inducible HEK293:TRex-Fpn-GFP (TRex) cells (UniProt Q9NP59)
T1 sequence: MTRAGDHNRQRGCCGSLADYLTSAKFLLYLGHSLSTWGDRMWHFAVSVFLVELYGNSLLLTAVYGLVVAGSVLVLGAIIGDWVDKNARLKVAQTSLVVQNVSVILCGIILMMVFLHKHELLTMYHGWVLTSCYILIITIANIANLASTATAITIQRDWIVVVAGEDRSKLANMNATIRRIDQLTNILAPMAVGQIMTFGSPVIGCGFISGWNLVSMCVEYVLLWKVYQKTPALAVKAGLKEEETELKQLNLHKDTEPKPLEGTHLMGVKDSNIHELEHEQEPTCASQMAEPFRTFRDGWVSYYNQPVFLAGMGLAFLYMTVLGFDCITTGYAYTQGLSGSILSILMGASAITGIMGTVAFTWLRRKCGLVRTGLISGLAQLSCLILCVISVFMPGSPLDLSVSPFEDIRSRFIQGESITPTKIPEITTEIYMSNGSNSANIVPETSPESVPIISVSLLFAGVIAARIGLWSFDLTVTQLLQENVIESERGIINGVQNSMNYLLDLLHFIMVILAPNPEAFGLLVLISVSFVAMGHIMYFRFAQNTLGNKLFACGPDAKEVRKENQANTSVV

[2] = molecular target: T2, ferroportin (Fpn), endogenous in mouse duodenum (mouse (endogenous in duodenum)) (UniProt Q9JHI9)
T2 sequence: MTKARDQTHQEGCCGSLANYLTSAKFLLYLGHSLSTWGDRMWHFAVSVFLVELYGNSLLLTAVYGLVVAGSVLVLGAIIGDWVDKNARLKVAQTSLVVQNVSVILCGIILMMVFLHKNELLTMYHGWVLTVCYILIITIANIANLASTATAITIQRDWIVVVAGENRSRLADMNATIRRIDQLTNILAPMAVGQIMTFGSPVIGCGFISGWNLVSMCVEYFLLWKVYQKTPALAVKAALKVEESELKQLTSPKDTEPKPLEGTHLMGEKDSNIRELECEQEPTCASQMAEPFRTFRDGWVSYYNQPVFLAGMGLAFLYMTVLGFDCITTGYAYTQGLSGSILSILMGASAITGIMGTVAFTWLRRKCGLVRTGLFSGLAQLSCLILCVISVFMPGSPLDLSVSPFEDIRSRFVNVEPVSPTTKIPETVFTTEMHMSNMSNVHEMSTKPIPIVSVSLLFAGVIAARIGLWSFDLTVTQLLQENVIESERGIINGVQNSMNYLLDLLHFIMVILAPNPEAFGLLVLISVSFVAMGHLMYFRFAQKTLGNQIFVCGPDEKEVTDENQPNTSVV

[3] = molecular target: T1, Fpn-GFP in doxycycline-inducible HEK293:TRex-Fpn-GFP (TRex) cells; remark: listed apart in the source

## HA-tagged full-length PKCα (from UniProt P17252 1-672) (enzyme)
[1]
  binding: binds

## protein kinase C alpha (PKCα), endogenous in mouse duodenum (from UniProt P20444 1-672) (enzyme)
[2]
  binding: binds

## DTHFPICIFCCGCCHRSKCGMCCKT (peptide, UniProt P81172 60-84, biotin (position not given)) [Biotinyl-Hepcidin-25 (biotinylated human hepcidin)]
[3]
  binding: binds
